These results are taken from patent US7241737B2 (priority 2000, dated 2007).

This series can be described thus: Boc solid-phase peptide synthesis; benzhydrylamine resin; diisopropylcarbodiimide. The note with it: whole synthesis, scale 0.25 mmole.

The substance “Cpa-c[D-Cys-Pal-D-Trp-Lys-Val-Cys]-Cpa-amide” came in with an isolated mass of 125 mg.
